Experimental data from the supplement of paper PMC4604168 (melanoma cell lines).
Some of the results follow. Repeats are few or missing, and single values can be far off.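 Imaging used 1,536-well plates; nuclei positive for cleaved PARP by antibody were divided by total DNA-stained nuclei to yield the apoptosis fraction. Doses for screening kept most cells viable, and cell lines differ markedly in resting and induced cleaved-PARP levels.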

tested on: CBRC017 (line from a melanoma biopsy); assay: cleaved PARP positive nuclei fraction relative to DMSO control; melanoma cells; higher = more apoptosis; settings: library dose: low library concentration; 72 h

| Structure (SMILES) | cleaved PARP positive nuclei fraction [%] |
| --- | --- |
| C[C@]1(O)C[C@@H](c2nc(-c3ccc4ccc(-c5ccccc5)nc4c3)c3c(N)nccn32)C1 + CC(=O)O[C@@]12CO[C@@H]1C[C@H](O)[C@@]1(C)C(=O)[C@H](O)C3=C(C)[C@@H](OC(=O)[C@H](O)[C@@H](NC(=O)OC(C)(C)C)c4ccccc4)C[C@@](O)([C@@H](OC(=O)c4ccccc4)[C@H]21)C3(C)C [Docetaxel] (first compound 0.4 µM, partner dose 0.0001 µM) | 165 |
| CC1(C)CCC(c2ccc(Cl)cc2)=C(CN2CCN(c3ccc(C(=O)NS(=O)(=O)c4ccc(N[C@H](CCN5CCOCC5)CSc5ccccc5)c(S(=O)(=O)C(F)(F)F)c4)cc3)CC2)C1 + Cn1sc(=O)n(Cc2ccccc2)c1=O [TDZD-8] (first compound 0.4 µM, partner dose 0.4 µM) | 361 |
| C[C@]1(O)C[C@@H](c2nc(-c3ccc4ccc(-c5ccccc5)nc4c3)c3c(N)nccn32)C1 + OCc1c[nH]c2ccccc12 [Indole-3-carbinol] (first compound 0.4 µM, partner dose 0.8 µM) | 124 |
| CN(c1ncccc1CNc1nc(Nc2ccc3c(c2)CC(=O)N3)ncc1C(F)(F)F)S(C)(=O)=O + C[C@]1(c2nc3c(C(N)=O)cccc3[nH]2)CCCN1 [Veliparib] (first compound 0.08 µM, partner dose 1.4 µM) | 105 |
| C[C@]1(O)C[C@@H](c2nc(-c3ccc4ccc(-c5ccccc5)nc4c3)c3c(N)nccn32)C1 + CCCS(=O)(=O)Nc1ccc(F)c(C(=O)c2c[nH]c3ncc(Cl)cc23)c1F [PLX4720] (first compound 0.4 µM, partner dose 0.08 µM) | 131 |
| CN(c1ncccc1CNc1nc(Nc2ccc3c(c2)CC(=O)N3)ncc1C(F)(F)F)S(C)(=O)=O + Cn1c(=O)n(-c2ccc(C(C)(C)C#N)cc2)c2c3cc(-c4cnc5ccccc5c4)ccc3ncc21 [NVP-BEZ235] (first compound 0.08 µM, partner dose 0.004 µM) | 199 |
| NC(=O)c1ccc(N(C(N)=O)c2c(F)cccc2F)nc1-c1ccc(F)cc1F + CC(=O)c1c(C)c2cnc(Nc3ccc(N4CCNCC4)cn3)nc2n(C2CCCC2)c1=O [palbociclib] (first compound 0.4 µM, partner dose 0.04 µM) | 118 |
| CN(c1ncccc1CNc1nc(Nc2ccc3c(c2)CC(=O)N3)ncc1C(F)(F)F)S(C)(=O)=O + CCCS(=O)(=O)Nc1ccc(F)c(C(=O)c2c[nH]c3ncc(Cl)cc23)c1F [PLX4720] (first compound 0.08 µM, partner dose 0.08 µM) | 86.3 |
| CCCCCCCCc1ccc(CCC(N)(CO)CO)cc1 [fingolimod] + Nc1nc(F)nc2c1ncn2[C@@H]1O[C@H](CO)[C@@H](O)[C@@H]1O [fludarabine] (first compound 2 µM, partner dose 0.2 µM) | 142 |
| CCCCCCCCc1ccc(CCC(N)(CO)CO)cc1 [fingolimod] + CC(=O)c1c(C)c2cnc(Nc3ccc(N4CCNCC4)cn3)nc2n(C2CCCC2)c1=O [palbociclib] (first compound 2 µM, partner dose 0.04 µM) | 162 |
| CC(=O)O[C@@]12CO[C@@H]1C[C@H](O)[C@@]1(C)C(=O)[C@H](O)C3=C(C)[C@@H](OC(=O)[C@H](O)[C@@H](NC(=O)OC(C)(C)C)c4ccccc4)C[C@@](O)([C@@H](OC(=O)c4ccccc4)[C@H]21)C3(C)C [Docetaxel] + Cc1cc(Nc2cc(N3CCN(C)CC3)nc(/C=C/c3ccccc3)n2)n[nH]1 [ENMD2076] (first compound 0.0001 µM, partner dose 0.04 µM) | 144 |
| CC1(C)CCC(c2ccc(Cl)cc2)=C(CN2CCN(c3ccc(C(=O)NS(=O)(=O)c4ccc(N[C@H](CCN5CCOCC5)CSc5ccccc5)c(S(=O)(=O)C(F)(F)F)c4)cc3)CC2)C1 + CCCS(=O)(=O)Nc1ccc(F)c(C(=O)c2c[nH]c3ncc(Cl)cc23)c1F [PLX4720] (first compound 0.4 µM, partner dose 0.08 µM) | 472 |
| CC(=O)O[C@@]12CO[C@@H]1C[C@H](O)[C@@]1(C)C(=O)[C@H](O)C3=C(C)[C@@H](OC(=O)[C@H](O)[C@@H](NC(=O)OC(C)(C)C)c4ccccc4)C[C@@](O)([C@@H](OC(=O)c4ccccc4)[C@H]21)C3(C)C [Docetaxel] + Cn1c(Nc2ccc(C(F)(F)F)cc2)nc2cc(Oc3ccnc(-c4ncc(C(F)(F)F)[nH]4)c3)ccc21 [CHIR265] (first compound 0.0001 µM, partner dose 0.08 µM) | 219 |

Fetched one by one from the entries so far:

| Structure (SMILES) | cleaved PARP positive nuclei fraction [%] |
| --- | --- |
| CN(c1ncccc1CNc1nc(Nc2ccc3c(c2)CC(=O)N3)ncc1C(F)(F)F)S(C)(=O)=O + Cn1c(=O)n(-c2ccc(C(C)(C)C#N)cc2)c2c3cc(-c4cnc5ccccc5c4)ccc3ncc21 [NVP-BEZ235] (first compound 0.08 µM, partner dose 0.004 µM) | 199 |
| CN(c1ncccc1CNc1nc(Nc2ccc3c(c2)CC(=O)N3)ncc1C(F)(F)F)S(C)(=O)=O + C[C@]1(c2nc3c(C(N)=O)cccc3[nH]2)CCCN1 [Veliparib] (first compound 0.08 µM, partner dose 1.4 µM) | 105 |
